These results are taken from PubChem BioAssay AID296 (DTP/NCI, 2004).

The list does not hold the whole screen: it is rich in T/C values a quarter to a half above the control, in often repeated tests (any T/C) and in doses without a T/C. Further doses and runs are listed elsewhere. T/C is the treated group as % of the vehicle group. Schedules are NCI's codes, read here as Q, the interval in days (D) or hours (H), X, the number of doses. Some entries were tested several times; their values stand side by side, smallest first. Signs of the kind (2×) give the number of equal values in this list. Some T/C values are negative: the treated tumours shrank. Some T/C values carry the count of animals alive at the toxicity check (mostly the fifth day); without a count, all were alive then. Some doses have a count of surviving animals in place of a T/C: the source holds a T/C of zero for them, seemingly a mark for toxic or unscored doses. Counts of survivors are from the toxicity check (mostly the fifth day) where no day follows; animals may have died later.

The subject of this test is MX-1 breast xenograft, nude mice, tumor weight T/C. Kind of test: NCI In Vivo Anticancer Drug Screen. Data for tumor model Human Mammary Carcinoma MX-1 Xenograft (intrarenal inoculation) in NU/NU Swiss (nude) mice. The following applies: T/C endpoint: mean tumor weight change, higher T/C = larger tumour; for T/C: evaluated on day 11. The gist of the method:
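Activity is given as a ratio, with each measurement in the compound-treated arm divided by the matching measurement in vehicle-dosed controls. Tumour size or survival serves as the measured parameter.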
A general note: A xenograft is tissue or cells of one species grown in another, often human tumour cells in immunodeficient mice.

Where [1] appears, read: dose: 150.0 mg/kg/injection, schedule: Q04DX003 (sc), vehicle: saline.
Where [2] appears, read: dose: 300.0 mg/kg/injection, schedule: Q04DX003 (sc), vehicle: saline.
Setting [3] is: dose: 4.0 mg/kg/injection, schedule: Q01DX010 (sc), vehicle: saline.
[4] abbreviates: dose: 8.0 mg/kg/injection, schedule: Q01DX010 (sc), vehicle: saline.
Setting [5] is: dose: 200.0 mg/kg/injection, schedule: Q01DX010 (sc), vehicle: water.

For `ClCCCN1CCN(CCCl)CC1`, the survivor count is 2 of 6 on day 11 (dose: 15.0 mg/kg/injection, schedule: Q04DX003 (sc), vehicle: saline); 0 of 6 on day 11 and 1 of 6 on day 11 (dose: 30.0 mg/kg/injection, schedule: Q04DX003 (sc), vehicle: saline); 0 of 6 on day 11 (dose: 37.5 mg/kg/injection, schedule: Q04DX003 (sc), vehicle: saline); 0 of 6 on day 11 (dose: 75.0 mg/kg/injection, schedule: Q04DX003 (sc), vehicle: saline); 0 of 6 on day 11 under setting [1]; 0 of 6 on day 11 under setting [2].
`CN(C)CCN1C(=O)c2cccc3cc(N)cc(c23)C1=O`: the survivor count is 1 of 6 on day 11 (dose: 64.0 mg/kg/injection, schedule: Q04DX003 (sc), vehicle: saline with Tween-80) and 0 of 6 on day 11 (dose: 128.0 mg/kg/injection, schedule: Q04DX003 (sc), vehicle: saline with Tween-80).
Turning to `COc1cccc2c1C(=O)c1c(O)c3c(c(O)c1C2=O)C[C@@](O)(/C(C)=N\NC(=O)CO)C[C@@H]3OC1CC(N)C(O)C(C)O1` (some centres not stated), the T/C (dose: 25.0 mg/kg/injection, schedule: Q01DX010 (sc), vehicle: saline) is 131 % of control. The survivor count by setting is: (dose: 50.0 mg/kg/injection, schedule: Q01DX010 (sc), vehicle: saline) 0 of 3 on day 11; (dose: 100.0 mg/kg/injection, schedule: Q01DX010 (sc), vehicle: saline) 0 of 3 on day 11.
`CCN(Cc1ccc(Cl)c(Cl)c1)c1ccc2nc(N)nc(N)c2c1C`: the survivor count (dose: 37.5 mg/kg/injection, schedule: Q04DX003 (sc), vehicle: distilled water + Tween-80) was 3 of 6 on day 11 and the survivor count (dose: 75.0 mg/kg/injection, schedule: Q04DX003 (sc), vehicle: distilled water + Tween-80) is 0 of 6 on day 11.
Take `C[CH2][Ge]1([CH2]C)[CH2]CC2(CCN(CCCN(C)C)C2)C[CH2]1`: the survivor count under setting [1] is on record as 3 of 6 on day 11; the survivor count under setting [2] is given as 0 of 6 on day 11; the survivor count (dose: 600.0 mg/kg/injection, schedule: Q04DX003 (sc), vehicle: saline) is 0 of 6 on day 11; the survivor count (dose: 1200.0 mg/kg/injection, schedule: Q04DX003 (sc), vehicle: saline) is listed as 0 of 6 on day 11.
As to `Cc1cc(NCCN(C(C)C)C(C)C)nc(/N=C(\N)Nc2ccc(Cl)c(C(F)(F)F)c2)n1`, the survivor count (dose: 640.0 mg/kg/injection, schedule: Q04DX003 (sc), vehicle: Klucel (hydroxypropylcellulose) (HPC)) is on record as 3 of 6 on day 11.
For the compound `c1cc(-c2cc3ccc(C4=NCCN4)cc3[nH]2)ccc1C1=NCCN1`, the survivor count (dose: 200.0 mg/kg/injection, schedule: Q04DX003 (sc), vehicle: saline) is on record as 0 of 6 on day 11.
As for `O=C1c2ccccc2C(=O)c2c(NCCNCCO)ccc(NCCNCCO)c21`, the survivor count is, setting by setting: (dose: 16.0 mg/kg/injection, schedule: Q01DX010 (sc), vehicle: water) 0 of 3 on day 11; (dose: 32.0 mg/kg/injection, schedule: Q01DX010 (sc), vehicle: water) 0 of 3 on day 11; (dose: 106.6 mg/kg/injection, schedule: Q04DX003 (ip), vehicle: water) 1 of 2 on day 11; (dose: 106.6 mg/kg/injection, schedule: Q04DX003 (sc), vehicle: water) 1 of 3 on day 11.
With `COC1CC(CC2CCC(C)C(C(C)C(=O)O)O2)OC2(OC(C)(C3CCC(C)(C4OC(C5OC(O)(CO)C(C)CC5C)CC4C)O3)CC2C)C1C` (configuration not stated), for the setting “dose: 30.0 mg/kg/injection, schedule: Q04DX003 (sc), vehicle: Klucel (hydroxypropylcellulose) (HPC)”, the survivor count is given as 2 of 6 on day 11.
Regarding `COc1ccc(CC2C(=O)NC(C)C(=O)N(C)C3C(=O)N(C)C(Cc4ccc(O)c(c4)Oc4ccc(cc4)C3O)C(=O)NC(C)C(=O)NC(C)C(=O)N2C)cc1` (configuration not stated), where the note is “dose: 4.0 mg/kg/injection, schedule: Q01DX010 (sc), vehicle: saline with Tween-80”, the survivor count was 0 of 3 on day 11.
Consider `[CH3][Sn]([CH3])([Cl])[c]1cc[c]([Sn]([CH3])([CH3])[Cl])cc1`, for which the survivor count (dose: 10.0 mg/kg/injection, schedule: Q04DX003 (ip), vehicle: saline) is 0 of 6 on day 11.
As to `COc1ccc2[nH]c3c(c2c1)CCNC3CC(C)CCC=C(C)C` (configuration not stated), the T/C is 145 % of control (dose: 37.5 mg/kg/injection, schedule: Q04DX003 (sc), vehicle: Klucel (hydroxypropylcellulose) (HPC)) and 126 % of control (dose: 300.0 mg/kg/injection, schedule: Q04DX003 (sc), vehicle: Klucel (hydroxypropylcellulose) (HPC)).
As to `N[C@@H](Cc1ccc(N(CCCl)CCCl)cc1)C(=O)O`, the T/C reads like this: (dose: 1.0 mg/kg/injection, schedule: Q01DX010 (sc), vehicle: saline) 3, 6, 7 % of control (2×); (dose: 2.0 mg/kg/injection, schedule: Q01DX010 (sc), vehicle: saline) -78, -70, -48, -27 % of control [2 of 2 alive on day 11]; under setting [3], -89, -85, -12 % of control; under setting [4], -88 % of control. The survivor count by setting is: (dose: 4.0 mg/kg/injection, schedule: Q01DX010 (ip), vehicle: saline) 0 of 3 on day 11; under setting [3], 0 of 3 on day 11; (dose: 4.0 mg/kg/injection, schedule: Q01DX010 (sc), vehicle: suspension in saline) 1 of 2 on day 11; (dose: 8.0 mg/kg/injection, schedule: Q01DX010 (ip), vehicle: saline) 0 of 3 on day 11; under setting [4], 0 of 3 on day 11 and 1 of 2 on day 11; (dose: 8.0 mg/kg/injection, schedule: Q01DX010 (sc), vehicle: suspension in saline) 0 of 3 on day 11. Besides, the survivor count is 0 of 6 on day 11 (dose: 12.0 mg/kg/injection, schedule: Q04DX003 (sc), vehicle: saline); 3 of 6 on day 11 (dose: 12.0 mg/kg/injection, schedule: Q04DX003 (sc), vehicle: suspension in saline); 0 of 3 on day 11 (dose: 13.3 mg/kg/injection, schedule: Q04DX003 (ip), vehicle: saline); 0 of 3 on day 11 (dose: 13.3 mg/kg/injection, schedule: Q04DX003 (sc), vehicle: saline); 0 of 3 on day 11 (dose: 26.6 mg/kg/injection, schedule: Q04DX003 (ip), vehicle: saline); 0 of 3 on day 11 (dose: 26.6 mg/kg/injection, schedule: Q04DX003 (sc), vehicle: saline).
For `CC(=O)Oc1ccccc1O`, where the note is “dose: 300.0 mg/kg/injection, schedule: Q04DX003 (sc), vehicle: saline + Tween-80 + alcohol”, the T/C is 126 % of control.
Turning to `O=c1cc(CCl)[nH]nc1CCl`, the survivor count (dose: 200.0 mg/kg/injection, schedule: Q01DX010 (sc), vehicle: saline with Tween-80) is given as 0 of 3 on day 11 and the survivor count (dose: 400.0 mg/kg/injection, schedule: Q01DX010 (sc), vehicle: saline with Tween-80) is 0 of 3 on day 11.
On to `O=C(O)c1c2c(nc3ccccc13)Cc1ccccc1-2`, for which, under setting [5], the T/C was 144 % of control [2 of 3 alive on day 11] and the survivor count is recorded as 1 of 2 on day 11. The survivor count (dose: 400.0 mg/kg/injection, schedule: Q01DX010 (sc), vehicle: water) is 0 of 2 on day 11 and 1 of 3 on day 11.
As for `NC(=S)N/N=C\c1ncccc1OCc1cccc(N)c1`, where the note is “dose: 300.0 mg/kg/injection, schedule: Q04DX003 (sc), vehicle: saline with Tween-80”, the T/C was 133 % of control. Where the note is “dose: 2400.0 mg/kg/injection, schedule: Q04DX003 (sc), vehicle: saline with Tween-80”, the survivor count is listed as 3 of 6 on day 11.
